The values below are quoted from earlier work in PMC11314731 (Polymers, 2024).

For the series the following is noted: cited from earlier work.

`CC(=O)O[C@H]1C(=O)[C@@]2(C)[C@H]([C@H](OC(=O)c3ccccc3)[C@]3(O)C[C@H](OC(=O)[C@H](O)[C@@H](NC(=O)c4ccccc4)c4ccccc4)C(C)=C1C3(C)C)[C@]1(OC(C)=O)CO[C@@H]1C[C@@H]2O` [PTX, Paclitaxel]: the solubility in water is ~ 0.3 μg/mL.
